Results taken from the supplement of paper PMC12819154, “High-throughput peptide-centric local stability assay extends protein–ligand identification to membrane proteins, tissues and bacteria” (Nature Structural & Molecular Biology, 2025).
The list shows a part of the results. Most values lie at the level of the controls, where differences are scatter.

Sequences of proteins named here, by UniProt entry; tags and fusion partners are left off. A change or cut given only in a name is not applied to a line headed by its entry.
UniProt Q6NWY9: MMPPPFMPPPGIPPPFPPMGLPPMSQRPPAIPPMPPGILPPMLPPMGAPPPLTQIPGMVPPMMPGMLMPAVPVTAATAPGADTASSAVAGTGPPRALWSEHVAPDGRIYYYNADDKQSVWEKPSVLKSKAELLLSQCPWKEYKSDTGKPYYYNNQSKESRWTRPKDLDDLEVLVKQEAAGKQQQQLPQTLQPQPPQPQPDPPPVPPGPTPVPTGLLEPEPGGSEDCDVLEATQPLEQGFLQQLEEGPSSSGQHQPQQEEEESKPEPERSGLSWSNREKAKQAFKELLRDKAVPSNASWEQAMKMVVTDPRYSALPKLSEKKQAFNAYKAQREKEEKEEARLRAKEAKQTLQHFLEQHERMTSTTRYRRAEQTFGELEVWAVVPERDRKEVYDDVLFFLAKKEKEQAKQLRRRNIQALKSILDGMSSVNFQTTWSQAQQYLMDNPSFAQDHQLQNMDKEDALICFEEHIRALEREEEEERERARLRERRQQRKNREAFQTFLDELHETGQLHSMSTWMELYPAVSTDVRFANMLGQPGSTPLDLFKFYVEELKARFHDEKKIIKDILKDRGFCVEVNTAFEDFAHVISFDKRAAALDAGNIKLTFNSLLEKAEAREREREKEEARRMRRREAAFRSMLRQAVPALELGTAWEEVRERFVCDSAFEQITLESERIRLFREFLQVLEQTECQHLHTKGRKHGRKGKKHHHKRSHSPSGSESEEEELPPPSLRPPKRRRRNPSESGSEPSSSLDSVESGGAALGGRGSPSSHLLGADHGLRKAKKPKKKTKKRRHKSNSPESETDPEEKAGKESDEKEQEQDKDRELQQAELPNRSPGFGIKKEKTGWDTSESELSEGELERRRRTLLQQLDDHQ
UniProt Q6P1M9: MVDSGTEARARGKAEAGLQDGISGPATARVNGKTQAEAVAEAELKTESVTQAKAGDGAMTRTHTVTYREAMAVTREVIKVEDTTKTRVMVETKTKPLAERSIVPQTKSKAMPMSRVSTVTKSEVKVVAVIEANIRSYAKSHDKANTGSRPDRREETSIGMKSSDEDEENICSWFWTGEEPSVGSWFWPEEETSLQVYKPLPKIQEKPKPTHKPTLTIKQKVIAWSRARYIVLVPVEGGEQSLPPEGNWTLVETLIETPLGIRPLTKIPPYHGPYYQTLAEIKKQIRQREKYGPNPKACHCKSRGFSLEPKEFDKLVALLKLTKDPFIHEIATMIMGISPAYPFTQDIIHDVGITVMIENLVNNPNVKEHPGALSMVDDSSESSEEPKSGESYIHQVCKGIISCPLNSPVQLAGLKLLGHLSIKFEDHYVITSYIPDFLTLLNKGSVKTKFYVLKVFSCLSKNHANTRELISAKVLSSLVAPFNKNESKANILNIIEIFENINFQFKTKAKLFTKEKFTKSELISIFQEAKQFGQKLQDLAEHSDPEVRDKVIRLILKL
UniProt Q69YN4: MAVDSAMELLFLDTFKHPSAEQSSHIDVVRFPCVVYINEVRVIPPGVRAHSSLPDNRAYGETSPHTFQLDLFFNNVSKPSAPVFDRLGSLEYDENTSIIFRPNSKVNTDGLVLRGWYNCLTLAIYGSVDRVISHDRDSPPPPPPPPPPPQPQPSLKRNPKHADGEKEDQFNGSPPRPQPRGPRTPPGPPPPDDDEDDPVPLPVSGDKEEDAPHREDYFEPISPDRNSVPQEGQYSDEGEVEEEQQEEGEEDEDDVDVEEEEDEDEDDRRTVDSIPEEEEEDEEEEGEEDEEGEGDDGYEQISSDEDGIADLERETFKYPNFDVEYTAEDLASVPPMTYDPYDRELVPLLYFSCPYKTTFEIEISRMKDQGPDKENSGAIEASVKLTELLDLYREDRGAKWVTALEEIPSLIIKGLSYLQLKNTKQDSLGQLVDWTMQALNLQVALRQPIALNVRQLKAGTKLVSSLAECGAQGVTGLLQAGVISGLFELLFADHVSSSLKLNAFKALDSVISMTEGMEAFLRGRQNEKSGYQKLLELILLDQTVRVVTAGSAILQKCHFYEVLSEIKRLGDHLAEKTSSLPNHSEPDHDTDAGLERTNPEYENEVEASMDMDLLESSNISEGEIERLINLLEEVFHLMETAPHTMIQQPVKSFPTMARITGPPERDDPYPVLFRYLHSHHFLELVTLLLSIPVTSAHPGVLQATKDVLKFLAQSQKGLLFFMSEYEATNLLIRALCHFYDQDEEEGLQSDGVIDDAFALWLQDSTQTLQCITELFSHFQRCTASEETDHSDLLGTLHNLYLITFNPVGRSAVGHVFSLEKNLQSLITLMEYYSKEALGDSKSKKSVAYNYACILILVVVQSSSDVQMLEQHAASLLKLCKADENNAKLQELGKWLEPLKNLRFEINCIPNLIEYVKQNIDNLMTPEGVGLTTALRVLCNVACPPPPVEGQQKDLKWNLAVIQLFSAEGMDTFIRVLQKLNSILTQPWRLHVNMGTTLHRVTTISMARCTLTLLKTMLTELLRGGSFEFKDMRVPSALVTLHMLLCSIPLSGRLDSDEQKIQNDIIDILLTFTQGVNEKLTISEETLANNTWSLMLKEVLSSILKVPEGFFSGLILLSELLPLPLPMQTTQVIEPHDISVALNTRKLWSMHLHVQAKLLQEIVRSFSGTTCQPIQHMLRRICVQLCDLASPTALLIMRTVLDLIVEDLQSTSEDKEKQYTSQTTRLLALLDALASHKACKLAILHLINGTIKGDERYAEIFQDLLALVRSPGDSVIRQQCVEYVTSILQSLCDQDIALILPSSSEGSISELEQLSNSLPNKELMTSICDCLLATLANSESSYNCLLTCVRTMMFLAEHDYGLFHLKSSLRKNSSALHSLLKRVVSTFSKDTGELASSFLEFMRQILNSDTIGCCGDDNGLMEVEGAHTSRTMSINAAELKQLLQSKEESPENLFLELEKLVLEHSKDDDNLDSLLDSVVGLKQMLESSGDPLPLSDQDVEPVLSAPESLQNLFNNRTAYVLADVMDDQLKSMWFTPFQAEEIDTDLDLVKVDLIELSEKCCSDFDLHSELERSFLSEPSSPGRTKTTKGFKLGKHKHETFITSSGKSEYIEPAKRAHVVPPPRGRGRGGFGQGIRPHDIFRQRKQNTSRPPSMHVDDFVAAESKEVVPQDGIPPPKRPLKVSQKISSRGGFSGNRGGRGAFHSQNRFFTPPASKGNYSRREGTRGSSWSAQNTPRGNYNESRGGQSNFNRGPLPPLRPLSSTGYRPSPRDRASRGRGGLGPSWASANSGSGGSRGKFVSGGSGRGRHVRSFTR
UniProt Q6PI48: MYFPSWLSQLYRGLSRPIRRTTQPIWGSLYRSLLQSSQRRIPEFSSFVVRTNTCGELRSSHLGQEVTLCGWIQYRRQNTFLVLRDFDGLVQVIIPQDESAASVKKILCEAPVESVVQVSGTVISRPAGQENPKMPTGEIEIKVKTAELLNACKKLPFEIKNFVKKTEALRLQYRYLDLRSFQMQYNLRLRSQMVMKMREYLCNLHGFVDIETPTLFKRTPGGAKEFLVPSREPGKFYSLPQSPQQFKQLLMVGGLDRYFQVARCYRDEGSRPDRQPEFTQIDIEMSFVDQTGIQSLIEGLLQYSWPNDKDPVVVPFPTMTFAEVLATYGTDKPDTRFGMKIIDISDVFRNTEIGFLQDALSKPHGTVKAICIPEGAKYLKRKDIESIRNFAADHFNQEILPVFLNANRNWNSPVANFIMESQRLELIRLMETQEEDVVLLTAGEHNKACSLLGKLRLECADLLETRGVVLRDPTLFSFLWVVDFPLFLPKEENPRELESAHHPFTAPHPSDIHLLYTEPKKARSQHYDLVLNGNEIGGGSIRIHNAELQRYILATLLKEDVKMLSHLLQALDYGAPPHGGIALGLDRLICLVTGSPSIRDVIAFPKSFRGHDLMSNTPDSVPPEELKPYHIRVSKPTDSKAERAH
UniProt Q6WKZ4: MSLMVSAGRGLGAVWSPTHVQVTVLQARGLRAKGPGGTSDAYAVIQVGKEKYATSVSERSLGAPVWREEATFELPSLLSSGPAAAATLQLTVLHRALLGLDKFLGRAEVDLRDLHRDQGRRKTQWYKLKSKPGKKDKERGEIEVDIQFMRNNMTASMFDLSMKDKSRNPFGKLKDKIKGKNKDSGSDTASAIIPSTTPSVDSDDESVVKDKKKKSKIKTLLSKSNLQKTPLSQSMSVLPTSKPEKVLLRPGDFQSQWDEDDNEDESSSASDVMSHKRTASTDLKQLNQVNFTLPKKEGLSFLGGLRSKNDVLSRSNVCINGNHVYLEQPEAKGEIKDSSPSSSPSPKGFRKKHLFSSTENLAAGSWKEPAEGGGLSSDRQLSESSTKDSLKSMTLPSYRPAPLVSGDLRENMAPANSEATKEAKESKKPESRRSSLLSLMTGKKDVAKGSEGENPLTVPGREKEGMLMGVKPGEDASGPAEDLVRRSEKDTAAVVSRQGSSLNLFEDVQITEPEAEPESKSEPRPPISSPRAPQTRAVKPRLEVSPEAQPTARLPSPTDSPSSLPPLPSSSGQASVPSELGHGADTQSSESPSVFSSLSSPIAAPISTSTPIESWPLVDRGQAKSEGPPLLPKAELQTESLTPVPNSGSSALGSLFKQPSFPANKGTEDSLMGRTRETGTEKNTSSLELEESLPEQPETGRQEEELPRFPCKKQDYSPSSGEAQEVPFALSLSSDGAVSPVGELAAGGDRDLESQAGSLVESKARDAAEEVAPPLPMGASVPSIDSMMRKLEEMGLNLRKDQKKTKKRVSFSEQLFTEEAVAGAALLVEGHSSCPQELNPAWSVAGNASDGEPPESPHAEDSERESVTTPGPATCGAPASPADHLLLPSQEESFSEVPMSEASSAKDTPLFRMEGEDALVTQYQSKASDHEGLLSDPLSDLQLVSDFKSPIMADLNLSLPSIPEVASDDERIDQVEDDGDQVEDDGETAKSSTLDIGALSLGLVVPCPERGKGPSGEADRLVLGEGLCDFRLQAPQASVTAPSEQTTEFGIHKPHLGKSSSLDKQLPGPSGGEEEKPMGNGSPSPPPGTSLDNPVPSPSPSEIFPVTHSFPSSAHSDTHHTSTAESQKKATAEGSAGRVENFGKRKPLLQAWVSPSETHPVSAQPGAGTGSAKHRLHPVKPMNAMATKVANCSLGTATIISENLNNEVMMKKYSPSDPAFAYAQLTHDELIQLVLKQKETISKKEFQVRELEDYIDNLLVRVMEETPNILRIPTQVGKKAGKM
UniProt Q63HQ0: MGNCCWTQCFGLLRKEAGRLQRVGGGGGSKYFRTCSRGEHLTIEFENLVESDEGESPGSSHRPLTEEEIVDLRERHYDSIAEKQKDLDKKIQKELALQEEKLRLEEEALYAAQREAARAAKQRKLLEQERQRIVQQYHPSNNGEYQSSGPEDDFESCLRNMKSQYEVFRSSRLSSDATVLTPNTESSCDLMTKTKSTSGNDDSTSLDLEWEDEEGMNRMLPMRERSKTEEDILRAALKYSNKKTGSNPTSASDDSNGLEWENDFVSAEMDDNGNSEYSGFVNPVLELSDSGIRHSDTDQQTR
UniProt Q6AI39, whole entry: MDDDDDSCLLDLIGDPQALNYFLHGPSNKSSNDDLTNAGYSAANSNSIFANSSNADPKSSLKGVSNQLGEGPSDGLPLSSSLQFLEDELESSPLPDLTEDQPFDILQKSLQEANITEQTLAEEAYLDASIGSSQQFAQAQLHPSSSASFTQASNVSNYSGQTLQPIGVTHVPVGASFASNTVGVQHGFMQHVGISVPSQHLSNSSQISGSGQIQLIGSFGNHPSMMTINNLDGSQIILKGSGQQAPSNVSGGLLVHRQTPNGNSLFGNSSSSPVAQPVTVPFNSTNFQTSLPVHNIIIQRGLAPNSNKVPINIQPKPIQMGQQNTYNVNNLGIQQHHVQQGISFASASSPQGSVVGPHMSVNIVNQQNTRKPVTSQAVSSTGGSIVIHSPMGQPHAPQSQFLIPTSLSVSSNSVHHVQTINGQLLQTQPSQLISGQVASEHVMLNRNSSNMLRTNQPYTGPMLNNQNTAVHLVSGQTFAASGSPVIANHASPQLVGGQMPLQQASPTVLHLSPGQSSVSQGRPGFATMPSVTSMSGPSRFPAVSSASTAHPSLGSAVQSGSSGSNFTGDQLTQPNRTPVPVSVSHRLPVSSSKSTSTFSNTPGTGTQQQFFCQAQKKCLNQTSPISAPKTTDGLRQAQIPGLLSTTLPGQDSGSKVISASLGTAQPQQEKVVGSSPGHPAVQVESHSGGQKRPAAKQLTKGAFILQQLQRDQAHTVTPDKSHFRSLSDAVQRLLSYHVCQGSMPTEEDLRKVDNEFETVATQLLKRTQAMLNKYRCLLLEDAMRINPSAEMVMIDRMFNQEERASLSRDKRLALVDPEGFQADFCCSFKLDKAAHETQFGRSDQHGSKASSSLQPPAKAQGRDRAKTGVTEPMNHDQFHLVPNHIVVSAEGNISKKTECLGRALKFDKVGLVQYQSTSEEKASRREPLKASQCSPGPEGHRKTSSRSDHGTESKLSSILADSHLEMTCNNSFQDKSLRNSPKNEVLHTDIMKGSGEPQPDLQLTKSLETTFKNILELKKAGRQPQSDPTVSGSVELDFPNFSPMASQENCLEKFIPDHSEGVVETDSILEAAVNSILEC

compound: CN[C@@H]1C[C@H]2O[C@@](C)([C@@H]1OC)n1c3ccccc3c3c4c(c5c6ccccc6n2c5c31)C(=O)NC4 [staurosporine]; test: log2 fold change of tryptic peptide abundance, ligand vs vehicle (limited proteolysis) (log2 ratio); higher = more trypsin-susceptible (destabilized); conditions: ligand concentration: 20 uM; sample: K562 cleared lysate; digestion: 4 min, 22 C (HT-PELSA RT4min, Orbitrap Astral)

Row | Target | log2 fold change
1 | FDX2 (peptide sequence: NFYVDGHVPKPH, peptide start residue: 175) (UniProt Q6P4F2) | 0.00818
2 | ZSCAN25 (peptide sequence: NANLAVHR, peptide start residue: 470) (UniProt Q6NSZ9) | 0.594
3 | RANBP10 (peptide sequence: ELQALSEQLGR, peptide start residue: 517) (UniProt Q6VN20) | -0.418
4 | PRPF40B (peptide sequence: DLDDLEVLVK, peptide start residue: 166) (UniProt Q6NWY9) | -0.321
5 | UniProt Q5XUX0 (peptide sequence: ESQPSPAQPR, peptide start residue: 399) | -0.257
6 | UniProt Q6NZI2 (peptide sequence: EGQVEVLK, peptide start residue: 330) | -0.133
7 | ARMCX5 (peptide sequence: VLSSLVAPFNKNESK, peptide start residue: 474) (UniProt Q6P1M9) | -0.217
8 | ARHGAP17 (peptide sequence: WAEKPAFGTPLEEHLKR, peptide start residue: 244) (UniProt Q68EM7) | 0.452
9 | ANKS6 (peptide sequence: SGGSIDNVLSQIAAQR, peptide start residue: 657) (UniProt Q68DC2) | -0.327
10 | CENPP (peptide sequence: RACEDPPAPWEEK, peptide start residue: 20) (UniProt Q6IPU0) | -0.206
11 | UniProt Q6PII3 (peptide sequence: EFSFGYWSKR, peptide start residue: 369) | -0.484
12 | UniProt Q6UWZ7 (peptide sequence: KVEDSEQAVDKLVK, peptide start residue: 232) | 0.445
13 | UniProt Q69YN4 (peptide sequence: QNTSRPPSMHVDDFVAAESK, peptide start residue: 1644) | -0.211
14 | DARS2 (peptide sequence: LECADLLETR, peptide start residue: 457) (UniProt Q6PI48) | -0.459
15 | CRTC1 (peptide sequence: QAWDTKK, peptide start residue: 202) (UniProt Q6UUV9) | 0.389
16 | TXNDC11 (peptide sequence: ILVATMERK, peptide start residue: 923) (UniProt Q6PKC3) | 0.0318
17 | ANKRD40 (peptide sequence: GEMPVQLTSR, peptide start residue: 77) (UniProt Q6AI12) | -0.233
18 | KLC3 (peptide sequence: EATDLLHDALQIR, peptide start residue: 267) (UniProt Q6P597) | -0.481
19 | TBC1D9B (peptide sequence: AEDIEQMR, peptide start residue: 779) (UniProt Q66K14) | -0.334
20 | DHRS11 (peptide sequence: YAVTALTEGLR, peptide start residue: 171) (UniProt Q6UWP2) | 0.484
21 | RAB11FIP1 (peptide sequence: HRLHPVKPMNAMATK, peptide start residue: 1174) (UniProt Q6WKZ4) | 0.327
22 | UniProt Q63HQ0 (peptide sequence: LRLEEEALYAAQR, peptide start residue: 102) | -0.0951
23 | BCOR (peptide sequence: DVTDKPLDLSSK, peptide start residue: 435) (UniProt Q6W2J9) | 0.772
24 | BICRAL (peptide sequence: MFNQEER, peptide start residue: 797) (UniProt Q6AI39) | 0.359
25 | RNF123 (peptide sequence: DTEDKLR, peptide start residue: 785) (UniProt Q5XPI4) | -0.456
26 | SLC30A10 (peptide sequence: TQEDQCYVNR, peptide start residue: 473) (UniProt Q6XR72) | -0.0925
27 | UniProt Q5VZE5 (peptide sequence: VLLTVLIAFTKK, peptide start residue: 242) | 0.574
28 | NCAPH2 (peptide sequence: GPSFADMEVLYWTHVK, peptide start residue: 383) (UniProt Q6IBW4) | -0.383

A second format for some results above.

| Row | Target | log2 fold change |
| --- | --- | --- |
| 12 | UniProt Q6UWZ7 (peptide sequence: KVEDSEQAVDKLVK, peptide start residue: 232) | 0.445 |
| 13 | UniProt Q69YN4 (peptide sequence: QNTSRPPSMHVDDFVAAESK, peptide start residue: 1644) | -0.211 |
